Results reported in patent US12466851 (dated 2025).

Experiment: general procedure: Fmoc solid-phase peptide synthesis
Settings: oxidative folding step, analytical RP-HPLC, one disulfide bridge, sequence written open

Which results are given for “H-D-Phe-Cys-Phe-D-Trp-Lys-Thr-Cys-L-threoninol”?
crude HPLC purity (run 1): 90%; crude HPLC purity (run 2): 92.59%; crude HPLC purity (run 3): 90.44%
